For at least one compound, name, drawing or mass did not settle the structure.
Experiments:
TFEB = TFEB nuclear translocation in starved / re-stimulated HeLa cells (nuclear/cytosolic fractionation, immunofluorescence); format: cell-based, human; conditions: starved cells stimulated with amino-acid rich medium, Torin 1 250 nM, Rapamycin 2.5 μM
Procedure: Cells were seeded at 50% of confluence in 6 well dishes and serum starved overnight (ON). Normal medium was added the following day either in presence of DMSO or kinase inhibitors. Subcellular fractionation was carried out as previously reported.

TFEB S142 = TFEB S142 phosphorylation with p-S142 phosphospecific antibody; format: cell-based, human; conditions: starved cells supplemented with normal media
Excerpt: The mouse anti-TFEB monoclonal antibody was purchased from My Biosource catalogue No. MBS120432. To generate anti-pS142 specific antibodies, rabbits were immunized with the following peptide coupled to KLH: AGNSAPN{pSer}[…]. Following the fourth immunization, rabbits were sacrificed and the serum was collected. Non-phosphospecific antibodies were depleted from the serum by circulation through a column containing the non-phosphorylated antigene. The phosphospecific antibodies were subsequently purified using a column containing the phosphorylated peptide.
Cells were lysed with M-PER buffer (Thermo) containing protease and phosphatase inhibitors (Sigma); nuclear/cytosolic fractions were isolated as above described. Proteins were separated by SDS-PAGE (Invitrogen; reduced NuPAGE 4-12% Bis-tris Gel, MES SDS buffer). If needed, the gel was stained using 20 ml Imperial Protein Stain (Thermo Fisher) at room temperature for 1 h and de-stained with water. Immunoblotting analysis was performed by transferring the protein onto a nitrocellulose membrane with an I-Blot (Invitrogen). […]

SMILES: CO[C@H]1C[C@@H]2CC[C@@H](C)[C@@](O)(O2)C(=O)C(=O)N2CCCC[C@H]2C(=O)O[C@H]([C@H](C)C[C@@H]2CC[C@@H](O)[C@H](OC)C2)CC(=O)[C@H](C)/C=C(\C)[C@@H](O)[C@@H](OC)C(=O)[C@H](C)C[C@H](C)/C=C/C=C/C=C/1C [Rapamycin]
- TFEB subcellular localization (TFEB): did not affect
- TFEB molecular weight shift induced by nutrients (TFEB; U0126 50 μM): partial molecular weight shift
- nutrient-induced S142 phosphorylation (TFEB S142): did not
